Values quoted from earlier work, collected in patent US6825040B2, “Method of using a vapor acid test kit” (Mainstream Engineering Corporation, priority 1995, dated 2004).
At least one structure is not confirmed: it was looked up by name or label, or the drawing left a doubt.

SMILES: O=S1(=O)OC(c2cc(Br)c(O)c(Br)c2)(c2cc(Br)c(O)c(Br)c2)c2ccccc21 [Bromophenol blue, Tetrabromophenolsulfonephthalein]
- pH Range: 3.0 to 4.8

SMILES: CN(C)c1ccc(N=Nc2ccccc2)cc1 [Methyl yellow, Dimethylaminoazobenzene]
- pH Range: 2.9 to 4.0
